Data as given in BindingDB's records for PubMed 1464308 (Cnrs, 1992).

Protein sequences, listed by entry. Tags and fused reporters are not part of them.
UniProt P30966, whole entry: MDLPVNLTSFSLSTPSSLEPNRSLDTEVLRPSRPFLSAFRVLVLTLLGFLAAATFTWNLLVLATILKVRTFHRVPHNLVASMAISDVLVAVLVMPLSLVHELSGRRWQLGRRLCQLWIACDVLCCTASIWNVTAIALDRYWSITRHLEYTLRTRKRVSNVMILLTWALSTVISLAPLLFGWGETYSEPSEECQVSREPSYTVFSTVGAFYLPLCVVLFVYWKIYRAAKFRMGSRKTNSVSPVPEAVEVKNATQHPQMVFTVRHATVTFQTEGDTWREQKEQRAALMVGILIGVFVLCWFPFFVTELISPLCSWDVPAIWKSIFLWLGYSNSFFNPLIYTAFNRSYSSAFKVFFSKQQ

Target: 5-hydroxytryptamine receptor 5A (Mus musculus, UniProt P30966)

Ki: > 10 µM
Structure (SMILES): CC(C)NC[C@H](O)COc1cccc2ccccc12 [Propanolol,(+/-)]
